Reference: PubChem BioAssay AID256 (DTP/NCI, 2004)
The list does not hold the whole screen: it is rich in T/C values a quarter to a half above the control, in often repeated tests (any T/C) and in doses without a T/C. Other doses and runs of a compound stand elsewhere. T/C gives the treated animals as a percentage of the vehicle group. Some entries give survivors of the animals treated and no T/C: the source holds a T/C of zero for them, seemingly a mark for toxic or unscored doses. Some doses without a T/C left all or most animals alive at the check, yet need not have been tolerated: the source hardly ever lists a survival T/C far under the control, and the zero likely stands for such cases as well. Survivors were counted at the toxicity check, usually on the fifth day, unless a day is given; later deaths do not show. Schedule codes are those of the source, taken here to give the interval after Q, in days (D) or hours (H), and the number of doses after X. Some doses were run more than once; their values stand side by side, smallest first. Marks such as (2×) give the number of equal values in this list. Where survival is the endpoint, the PubChem record calls one and a half times the control and up active, and a quarter to a half above the control has no call in these data; cut-offs in other NCI protocols can differ. Some T/C values carry the count of animals alive at the toxicity check (mostly the fifth day); where none is given, no animal had died by that day. Some schedule codes hold Z or #, which are not explained here.

System: CD2F1 mice, L1210 leukemia ip, survival T/C
Assay: NCI In Vivo Anticancer Drug Screen. Data for tumor model L1210 Leukemia (intraperitoneal) in CD2F1 (CDF1) mice
Details: T/C endpoint: mean survival time, higher T/C = longer survival
Outline: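 Activity against a transplanted murine tumor was judged by comparing the compound group with a vehicle group. The outcome in the treated animals was divided by that in the controls.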

## S=c1nc[nH]c2nc[nH]c12
dose: 50.0 mg/kg/injection, schedule: Q04DX003 (ip), vehicle: alkali diluted with saline
  T/C: 119, 120, 121, 122 % of control
dose: 50.0 mg/kg/injection, schedule: Q04DX003 (ip), vehicle: alkali diluted with water
  T/C: 146 % of control
dose: 60.0 mg/kg/injection, schedule: Q04DX003 (ip), vehicle: saline
  T/C: 138 % of control
dose: 60.0 mg/kg/injection, schedule: Q## X002 (ip), vehicle: saline
  T/C: 135 % of control
dose: 80.0 mg/kg/injection, schedule: Q01DX001 (ip), vehicle: alkali diluted with water
  T/C: 137 % of control
dose: 80.0 mg/kg/injection, schedule: Q01DX005 (ip), vehicle: alkali diluted with saline, evaluated on day 30
  T/C: 130, 150, 156, 165, 172 % of control
dose: 80.0 mg/kg/injection, schedule: Q01DX005 (ip), vehicle: alkali diluted with saline, evaluated on day 45
  T/C: 160 % of control
dose: 80.0 mg/kg/injection, schedule: Q01DX005 (ip), vehicle: alkali diluted with water, evaluated on day 30, list 1 of 2
  T/C: 107, 125, 127, 128 (2×), 130, 134, 136, 136 [5 of 6 alive], 139, 140, 141, 144, 145 (3×), 148 (2×), 149, 150, 151, 152, 153 (3×), 155 (2×), 156, 160, 162, 163, 166, 170, 172 [5 of 6 alive], 175, 177, 181 [5 of 6 alive], 183, 187, 225 % of control
dose: 80.0 mg/kg/injection, schedule: Q01DX005 (ip), vehicle: alkali diluted with water, evaluated on day 30, list 2 of 2
  T/C: 97, 110, 121, 125, 128 (2×), 129, 134 (2×), 136, 139 (2×), 140, 142, 144, 145 (2×), 147, 148 (2×), 149, 150, 151, 152, 153 (2×), 154, 155, 156, 158, 162 (2×), 163, 167, 170, 172, 176, 180, 181, 185, 197 % of control
dose: 80.0 mg/kg/injection, schedule: Q01DX005 (ip), vehicle: alkali diluted with water, evaluated on day 45
  T/C: 136 % of control
dose: 80.0 mg/kg/injection, schedule: Q01DX005 (ip), vehicle: other, evaluated on day 30, list 1 of 2
  T/C: 122, 125, 130, 135, 138, 141 (3×), 142, 144 (2×), 146, 147, 150, 151, 151 [5 of 6 alive], 152, 153, 154, 155, 156, 157 (3×), 159, 160 (2×), 162, 166, 167, 168, 170, 173, 178 % of control
dose: 80.0 mg/kg/injection, schedule: Q01DX005 (ip), vehicle: other, evaluated on day 30, list 2 of 2
  T/C: 120, 125, 129, 131, 137, 139, 141 (3×), 143, 144, 145, 146, 147, 151 (2×), 152, 153 (2×), 154, 156 (2×), 157 (2×), 159 (2×), 160, 162 (2×), 167, 168, 170, 171, 174, 182 % of control
dose: 80.0 mg/kg/injection, schedule: Q01DX005 (ip), vehicle: other, evaluated on day 35
  T/C: 139 % of control
dose: 80.0 mg/kg/injection, schedule: Q01DX005 (ip), vehicle: other, evaluated on day 45
  T/C: 186 % of control
dose: 80.0 mg/kg/injection, schedule: Q01DX005 (ip), vehicle: sodium bicarbonate
  T/C: 126 % of control
dose: 80.0 mg/kg/injection, schedule: Q01DX009 (ip), vehicle: other
  T/C: 131 % of control
dose: 80.0 mg/kg/injection, schedule: Q03DX003 (ip), vehicle: saline
  T/C: 131 % of control
dose: 80.0 mg/kg/injection, schedule: Q04DX003 (ip), vehicle: saline
  T/C: 132 % of control
dose: 90.0 mg/kg/injection, schedule: Q04DX003 (ip), vehicle: alkali diluted with saline
  T/C: 135 % of control
dose: 90.0 mg/kg/injection, schedule: Q04DX003 (ip), vehicle: saline
  T/C: 143 % of control
dose: 90.0 mg/kg/injection, schedule: Q## X009 (ip), vehicle: saline
  T/C: 127 % of control
dose: 100.0 mg/kg/injection, schedule: Q04DX003 (ip), vehicle: alkali diluted with saline
  T/C: 136 (2×), 145, 150 % of control
dose: 100.0 mg/kg/injection, schedule: Q04DX003 (ip), vehicle: alkali diluted with water
  T/C: 132 and 143 % of control
dose: 160.0 mg/kg/injection, schedule: Q01DX001 (ip), vehicle: alkali diluted with water
  T/C: 125 % of control
dose: 160.0 mg/kg/injection, schedule: Q01DX005 (ip), vehicle: alkali diluted with saline, evaluated on day 30
  T/C: 122, 134, 142, 145, 150 % of control
dose: 160.0 mg/kg/injection, schedule: Q01DX005 (ip), vehicle: alkali diluted with saline, evaluated on day 45
  T/C: 151 % of control
dose: 160.0 mg/kg/injection, schedule: Q01DX005 (ip), vehicle: alkali diluted with water, evaluated on day 30, list 1 of 2
  T/C: 86 (2×), 87, 90, 90 [5 of 6 alive], 93, 94, 97 [5 of 6 alive], 101, 103, 106, 108 [5 of 6 alive], 110 [5 of 6 alive], 120, 125 (2×), 127, 135, 137, 139, 142, 146, 148, 153, 154, 156, 162, 167, 175 [5 of 6 alive], 182, 204 % of control
dose: 160.0 mg/kg/injection, schedule: Q01DX005 (ip), vehicle: alkali diluted with water, evaluated on day 30, list 2 of 2
  T/C: 86, 87, 90 (2×), 91, 94 [5 of 6 alive], 97 [4 of 6 alive], 101 (2×), 104, 107, 109, 117, 124, 125, 126, 130, 137 [5 of 6 alive], 138, 141, 144, 147, 151 [4 of 6 alive], 153, 155, 161, 166, 173 [5 of 6 alive], 181, 195, 227 % of control [5 of 6 alive]
dose: 160.0 mg/kg/injection, schedule: Q01DX005 (ip), vehicle: alkali diluted with water, evaluated on day 45
  T/C: 172 % of control
dose: 160.0 mg/kg/injection, schedule: Q01DX005 (ip), vehicle: alkali diluted with water
  survivor count: 0 of 6, 1 of 6, 1 of 3, 2 of 6, 3 of 6, 5 of 6 (2×), 6 of 6 (2×)
dose: 160.0 mg/kg/injection, schedule: Q01DX005 (ip), vehicle: other, evaluated on day 30
  T/C: 86 [4 of 6 alive], 88 (2×), 90, 92, 93 [2 of 3 alive], 94, 94 [4 of 6 alive], 95, 98, 100, 100 [5 of 6 alive], 104 [5 of 6 alive], 106 (2×), 107 (2×), 107 [4 of 6 alive], 107 [5 of 6 alive] (2×), 108, 110, 117, 117 [5 of 6 alive], 122 [2 of 3 alive], 123, 125, 125 [4 of 6 alive], 127, 127 [5 of 6 alive], 128, 129, 129 [5 of 6 alive], 131 (2×), 135, 137 [4 of 6 alive], 138 [5 of 6 alive], 139 (2×), 140, 143, 143 [5 of 6 alive], 144 (2×), 145 [5 of 6 alive], 155, 159, 166, 176, 186 % of control
dose: 160.0 mg/kg/injection, schedule: Q01DX005 (ip), vehicle: other, evaluated on day 35
  T/C: 118 % of control
dose: 160.0 mg/kg/injection, schedule: Q01DX005 (ip), vehicle: other
  survivor count: 0 of 6, 2 of 6, 3 of 6, 2 of 3, 4 of 6, 5 of 6, 3 of 3, 6 of 6 (2×)
dose: 160.0 mg/kg/injection, schedule: Q01DX005 (ip), vehicle: saline
  T/C: 145 % of control
dose: 160.0 mg/kg/injection, schedule: Q01DX005 (ip), vehicle: sodium bicarbonate
  T/C: 149 % of control
